In patent US20120214173A1, “Methods of Identifying Modulators of an Ehd Polypeptide” (priority 2007, published 2012):
Results are given in words; binding and its absence hold for the method and conditions named. Some entries that bind do so weakly or less than the wild type.

Target: selenomethionine-substituted EHD2 point mutant Q410A (crystallised with AMP-PNP) (mouse) (UniProt Q8BH64)
Experiment: crystal structure with AMP-PNP, 3.1 Å

- binding: binds
B1: selenomethionine-substituted EHD2 point mutant Q410A (crystallised with AMP-PNP) (enzyme, mouse, UniProt Q8BH64 1-543, looked up)
chain: MFSWLKKGGARGQRPEAIRTVTSSLKELYRTKLLPLEEHYRFGSFHSPALEDADFDGKPMVLVAGQYSTGKTSFIQYLLEQEVPGSRVGPEPTTDCFVAVMHGETEGTVPGNALVVDPEKPFRKLNPFGNTFLNRFMCAQLPNQVLESISIIDTPGILSGAKQRVSRGYDFPAVLRWFAERVDLIILLFDAHKLEISDEFSEAIGALRGHEDKIRVVLNKADMVETQQLMRVYGALMWALGKVVGTPEVLRVYIGSFWSQPLLVPDNRRLFELEEQDLFRDIQGLPRHAALRKLNDLVKRARLVRVHAYIISYLKKEMPTVFGKENKKKQLILKLPVIFAKIQLEHHISPGDFPDCQKMQELLMAHDFTKFHSLKPKLLEALDDMLAQDIAKLMPLLRQEELESVEAGVAGGAFEGTRMGPFVERGPDEAIEDGEEGSEDDAEWVVTKDKSKYDEIFYNLAPADGKLSGSKAKTWMVGTKLPNSVLGRIWKLSDVDRDGMLDDEEFALASHLIEAKLEGHGLPTNLPRRLVPPSKRRQKGSAE
modifications: selenomethionine-substituted
